The list shows a part of the results. Values are raw readings; no control value is given beside them.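 First-pass screen: polymyxin B was added at a level that permeabilizes the Salmonella outer membrane while sparing the inner membrane. DMSO wells, with and without polymyxin B, defined maximum growth. Because plates differed from one another, each plate's data were ranked separately and the compounds with the lowest OD600 were carried forward as hits.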

For this assay, the system named is Salmonella enterica serovar Typhimurium SL1344. The assay can be described thus: bacterial growth OD600 after 18 h with compound and polymyxin B; higher = more bacterial growth (less inhibition). The conditions noted are these: 50 µM, Mueller-Hinton broth.

In the case of `OCCC#Cc1ccc(CN2CC[C@@H](N3CCCCCC3)[C@H](O)C2)cc1`, the “bacterial growth OD600” value (polymyxin B 0.75 µg/mL) is 0.795. As for `COc1ccccc1OCC(=O)NCC1CCCN(Cc2ccc(C)c(C)c2)C1` (stereo not given), the “bacterial growth OD600” value (polymyxin B 1 µg/mL) was found to be 0.933. `CC(C)CN1CCC(C(Cc2ccccc2Cl)N(C)C(=O)c2ccco2)CC1` (stereo not given): the “bacterial growth OD600” value (polymyxin B 0.75 µg/mL) came out at 0.866.

As to `O[C@@H]1CN(C/C(Cl)=C/c2ccccc2)CC[C@H]1N1CCN(c2ccccc2F)CC1`, the “bacterial growth OD600” value (polymyxin B 0.75 µg/mL) was 0.555. In the case of `Cc1ccc(CNC(=O)c2cc(COc3cccc4cccnc34)on2)s1`, the “bacterial growth OD600” value (polymyxin B 1 µg/mL) was found to be 0.862. Consider `Cc1cc(Cl)c2oc(C(=O)N3CCCC(C(=O)c4nccn4C)C3)c(C)c2c1` (stereo not given), for which the “bacterial growth OD600” value (polymyxin B 1 µg/mL) was found to be 0.699.

`O=C(CN1Cc2ccccc2OC(c2ccccc2F)C1)N1CCC(C(O)c2cccnc2)CC1` (stereo not given): the “bacterial growth OD600” value (polymyxin B 0.75 µg/mL) worked out at 0.825. Take `Cc1nc(CN(C)C(=O)C2CCC(=O)N(CCc3cccc(F)c3)C2)cs1` (stereo not given): the “bacterial growth OD600” value (polymyxin B 1 µg/mL) is 0.961. As to `CCN1CCN(C(=O)c2ccc(N3CCC(NCc4ccc(C(=O)OC)cc4)CC3)cc2)CC1`, under “polymyxin B 0.75 µg/mL”, the “bacterial growth OD600” value is 0.874.

Consider `O=C1NCCN(Cc2cccnc2)C1CC(=O)N(Cc1ccccc1)CC1CCC1` (stereo not given), for which the “bacterial growth OD600” value (polymyxin B 1 µg/mL) came out at 0.832. Regarding `O=C(NC1CCCN(CCCc2ccccc2)C1)c1cc[n+]([O-])cc1` (stereo not given), the “bacterial growth OD600” value (polymyxin B 0.75 µg/mL) is 0.817. For `CN1CCCC2(CCN(C(=O)c3ccc4c(c3)OCO4)C2)C1=O` (stereo not given), the “bacterial growth OD600” value (polymyxin B 1 µg/mL) was 0.939.

Consider `CN(CCC1CCOCC1)C(=O)C1CCC(=O)N(C2CCCCCC2)C1` (stereo not given), for which the “bacterial growth OD600” value (polymyxin B 1 µg/mL) worked out at 1.18. For the molecule `CC(C)CN1CCC(C2CCN(C(=O)c3ccnnc3)C2)CC1` (stereo not given), for the setting “polymyxin B 0.75 µg/mL”, the “bacterial growth OD600” value was 0.826. Turning to `CCC(O)CNC(=O)c1ccc(OC2CCN(C(=O)C3CC3)CC2)cc1` (stereo not given), the “bacterial growth OD600” value (polymyxin B 1 µg/mL) came out at 0.972.

Turning to `C=CCC(=O)N1CCC2(CCCN(CCCc3ccccc3)C2=O)C1` (stereo not given), the “bacterial growth OD600” value (polymyxin B 1 µg/mL) was determined as 0.972. On the same count and under the same terms, next, `COCCN(CC1CCN(Cc2ccccc2F)CC1)C(=O)c1cc(C2CC2)n[nH]1`: 0.836. For `Cc1c(CC(=O)NC(C)C2CC2)c2c(n1Cc1ccccc1)CCCC2=O` (stereo not given), the “bacterial growth OD600” value (polymyxin B 1 µg/mL) came to 1.22.

As for `COc1ccc(CN2CCCC(Nc3ccc(C)c(C)c3)C2)cc1O` (stereo not given), the “bacterial growth OD600” value (polymyxin B 1 µg/mL) was found to be 0.819. The same measure, in the same setting: in the case of `O=C(Nc1ccnn1C1CCN(C(=O)Cc2ccc(F)c(F)c2)CC1)C1CC1` it was 0.947; in that of `O=C(c1cc2ccccc2oc1=O)N1CCCC(Nc2ccc3c(c2)OCCO3)C1` (stereo not given), 0.932. Consider `Cc1cccc(C(=O)N2CCOc3ccc(C(O)CCc4ccccc4)cc3C2)c1C` (stereo not given), for which the “bacterial growth OD600” value (polymyxin B 0.75 µg/mL) was 0.51. In the case of `O=C(c1ccccc1Cl)N1CCCC(N2CCN(c3ccccc3F)CC2)C1` (stereo not given), the “bacterial growth OD600” value (polymyxin B 1 µg/mL) amounted to 0.943. In the case of `COc1cc(C)c(CNC2CCCc3c2cnn3-c2ccccn2)cc1C` (stereo not given), the “bacterial growth OD600” value (polymyxin B 0.75 µg/mL) turned out to be 0.755. Same read-out and setting: in the case of `CC[C@H](C)[C@H](NC1CCN(c2ccc(NC(=O)C3CCCC3)cc2)CC1)C(=O)OC` it was 0.805; in that of `CCN1CCCC1CNC(=O)CCC1CCN(C2CCSCC2)CC1` (stereo not given), 0.81. For the molecule `CCCN1CCC(NC2CC(=O)N(C3CCCCCC3)C2)CC1` (stereo not given), the “bacterial growth OD600” value (polymyxin B 1 µg/mL) is 0.791. Consider `Cc1nnc(-c2cccc(NC(=O)C3CCN(C(=O)C4CCC4)CC3)c2)s1`, for which the “bacterial growth OD600” value (polymyxin B 0.75 µg/mL) turned out to be 0.859. Consider `CCOC(=O)CCNC(=O)c1cc(Cl)ccc1OC1CCN(C(C)=O)CC1`, for which, for the setting “polymyxin B 1 µg/mL”, the “bacterial growth OD600” value amounted to 0.948.

For `CCOC(=O)C1(Cc2cccc(OC)c2)CCCN(C(=O)CCc2c(C)nn(C)c2C)C1` (stereo not given), under “polymyxin B 0.75 µg/mL”, the “bacterial growth OD600” value was 0.829.

Source of the values: the supplement of paper PMC12889115.
